Measurements as given in US20100298285A1, “Biclycloheteroaryl Compounds as P2x7 Modulators and Uses Thereof” (priority 2006, published 2010).
At least one read-out could not be matched to a standard name with certainty.

System: IL-1β release, THP-1 cells
Experiment: IL-1β release assay in differentiated THP-1 cells stimulated with BzATP (Example 9)
Assay type: cell-based, human
Conditions: BzATP 250 uM, "+" symbols = inhibition at 0.3 μM, "*" symbols = inhibition at 0.1 μM
How it was run: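 THP-1 cells differentiated 16 h with 100 ng/mL LPS + 100 ng/mL IFN-γ, re-primed 2 h with fresh LPS 100 ng/mL, pretreated 30 min with compound, then stimulated with BzATP 250 uM final for 45 min. Supernatant IL-1β by ELISA; background-adjusted % inhibition, IC50 from four-parameter logistic fit.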

Compound	IL-1β% Inhib. @ 0.3 or 0.1 μM
O=C(Cc1ccc(C(F)(F)F)c(F)c1)Nc1c(Cl)ccc2c1CCN(S(=O)(=O)Cc1ccccc1)C2 [Compound 3365]	+ (compound exhibited 0-25% inhibition at 0.3 μM concentration)
O=C(Cc1ccc(C(F)(F)F)c(F)c1)Nc1c(Cl)ccc2c1CCN(S(=O)(=O)c1ccc(Oc3ccc(C(F)(F)F)cc3)cc1)C2 [Compound 3366]	+ (compound exhibited 0-25% inhibition at 0.3 μM concentration)
Cn1nc(-c2ccc(S(=O)(=O)N3CCc4c(ccc(Cl)c4NC(=O)Cc4cccc(C(F)(F)F)c4F)C3)s2)cc1C(F)(F)F [Compound 3367]	+ (compound exhibited 0-25% inhibition at 0.3 μM concentration)
O=C(Cc1ccc(C(F)(F)F)c(F)c1)Nc1c(Cl)ccc2c1CCN(S(=O)(=O)c1cc(C(F)(F)F)ccc1Cl)C2 [Compound 3368]	+ (compound exhibited 0-25% inhibition at 0.3 μM concentration)
O=C(Cc1ccc(C(F)(F)F)c(F)c1)Nc1c(Cl)ccc2c1CCN(S(=O)(=O)c1ccc3c(c1)OCCO3)C2 [Compound 3369]	++ (compound exhibited 26-50% inhibition at 0.3 μM concentration)
O=C(Cc1ccc(C(F)(F)F)c(F)c1)Nc1c(Cl)ccc2c1CCN(S(=O)(=O)c1ccccc1)C2 [Compound 3370]	+ (compound exhibited 0-25% inhibition at 0.3 μM concentration)
O=C(Cc1ccc(C(F)(F)F)c(F)c1)Nc1c(Cl)ccc2c1CCN(S(=O)(=O)c1ccc(C(=O)O)cc1)C2 [Compound 3371]	+ (compound exhibited 0-25% inhibition at 0.3 μM concentration)
N#Cc1ccccc1S(=O)(=O)N1CCc2c(ccc(Cl)c2NC(=O)Cc2ccc(C(F)(F)F)c(F)c2)C1 [Compound 3372]	++++ (compound exhibited 76% or greater inhibition at 0.3 μM concentration)
Cn1nc(-c2ccc(S(=O)(=O)N3CCc4c(ccc(Cl)c4NC(=O)Cc4ccc(C(F)(F)F)c(F)c4)C3)s2)cc1C(F)(F)F [Compound 3373]	+ (compound exhibited 0-25% inhibition at 0.3 μM concentration)
O=C(Cc1ccc(C(F)(F)F)c(F)c1)Nc1c(Cl)ccc2c1CCN(S(=O)(=O)Cc1ccc(Cl)cc1)C2 [Compound 3374]	+ (compound exhibited 0-25% inhibition at 0.3 μM concentration)
CN1CCOc2cc(S(=O)(=O)N3CCc4c(ccc(Cl)c4NC(=O)Cc4cccc(C(F)(F)F)c4F)C3)ccc21 [Compound 3375]	+ (compound exhibited 0-25% inhibition at 0.3 μM concentration)
Cc1cc(C)cc(S(=O)(=O)N2CCc3c(ccc(Cl)c3NC(=O)Cc3cccc(C(F)(F)F)c3F)C2)c1 [Compound 3376]	+ (compound exhibited 0-25% inhibition at 0.3 μM concentration)
CS(=O)(=O)c1ccc(S(=O)(=O)N2CCc3c(ccc(Cl)c3NC(=O)Cc3ccc(C(F)(F)F)c(F)c3)C2)cc1 [Compound 3377]	+ (compound exhibited 0-25% inhibition at 0.3 μM concentration)
O=C(Cc1cccc(C(F)(F)F)c1F)Nc1c(Cl)ccc2c1CCN(S(=O)(=O)c1ccc(OC(F)F)cc1)C2 [Compound 3378]	+ (compound exhibited 0-25% inhibition at 0.3 μM concentration)
O=C(Cc1ccc(C(F)(F)F)c(F)c1)Nc1c(Cl)ccc2c1CCN(S(=O)(=O)c1ccc(-c3cc(C(F)(F)F)on3)s1)C2 [Compound 3379]	+ (compound exhibited 0-25% inhibition at 0.3 μM concentration)
O=C(Cc1cccc(C(F)(F)F)c1F)Nc1c(Cl)ccc2c1CCN(S(=O)(=O)c1ccc(-c3cc(C(F)(F)F)on3)s1)C2 [Compound 3380]	+ (compound exhibited 0-25% inhibition at 0.3 μM concentration)
O=C(Cc1ccc(C(F)(F)F)c(F)c1)Nc1c(Cl)ccc2c1CCN(S(=O)(=O)Cc1cc(Cl)cc(Cl)c1)C2 [Compound 3381]	+ (compound exhibited 0-25% inhibition at 0.3 μM concentration)
O=C(Cc1cccc(C(F)(F)F)c1F)Nc1c(Cl)ccc2c1CCN(S(=O)(=O)Cc1cc(C(F)(F)F)cc(C(F)(F)F)c1)C2 [Compound 3382]	+ (compound exhibited 0-25% inhibition at 0.3 μM concentration)
